These are yes or no findings as the source states them, for the method shown. For some assays here: Binding seen in cells or lysates may run through a third protein. Some entries that bind do so weakly or less than the wild type.
Key:
[1] = target: 6x-His-PqsE (Pseudomonas aeruginosa) (UniProt P20581); assay: SEC; large scale (1 L): RhlR co-purified with 6x-His-PqsE on Ni-NTA beads, then Superose-6 in 50 mM Tris HCl pH 8.0, 150 mM NaCl, 200 µM C6HSL
[2] = target: 6x-His-PqsE (Pseudomonas aeruginosa) (UniProt P20581); assay: pull-down; 6x-His-PqsE and untagged RhlR co-expressed from pETDuet-1 in E. coli BL21 (DE3) with 200 µM C6HSL; soluble fraction on Ni-NTA magnetic beads, 4°C, 45 min; 50 mM Tris-HCl pH 8.0, 150 mM NaCl, 0.1% Triton X-100, wash 30 mM imidazole, elution 300 mM imidazole; input and output on SDS-PAGE, Coomassie

Chains of the proteins cited; added tags and fusions are not shown.
UniProt P20581: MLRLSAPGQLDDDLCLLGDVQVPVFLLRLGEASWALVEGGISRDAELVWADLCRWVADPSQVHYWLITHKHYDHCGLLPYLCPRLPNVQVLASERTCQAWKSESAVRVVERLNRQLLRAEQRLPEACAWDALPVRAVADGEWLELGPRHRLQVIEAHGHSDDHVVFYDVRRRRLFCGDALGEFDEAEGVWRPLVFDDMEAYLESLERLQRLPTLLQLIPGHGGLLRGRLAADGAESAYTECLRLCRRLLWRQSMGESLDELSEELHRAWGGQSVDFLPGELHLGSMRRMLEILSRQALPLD
UniProt P54292: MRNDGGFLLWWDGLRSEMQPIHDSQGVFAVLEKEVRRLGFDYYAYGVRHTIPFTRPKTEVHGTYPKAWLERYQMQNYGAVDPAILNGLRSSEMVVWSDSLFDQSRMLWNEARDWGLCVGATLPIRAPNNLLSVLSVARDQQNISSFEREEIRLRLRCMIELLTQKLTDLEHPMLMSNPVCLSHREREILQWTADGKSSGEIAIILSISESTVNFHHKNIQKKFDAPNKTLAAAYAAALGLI

## WT RhlR (from UniProt P54292 1-241) (receptor)
[1]
  binding: binds
[2]
  binding: binds

Reference: PMC13192270, “RhlR quorum-sensing receptor ligand sensitivity regulates the differential expression of phenazine genes in Pseudomonas aeruginosa” (Journal of Bacteriology, 2026)
